Assay results taken from publication PMC6177467.
These are yes or no findings as the source states them, for the method shown. Some binding calls cover weakened binding; strength is not graded here.

Chains of the proteins cited; added tags and fusions are not shown.
UniProt P51587: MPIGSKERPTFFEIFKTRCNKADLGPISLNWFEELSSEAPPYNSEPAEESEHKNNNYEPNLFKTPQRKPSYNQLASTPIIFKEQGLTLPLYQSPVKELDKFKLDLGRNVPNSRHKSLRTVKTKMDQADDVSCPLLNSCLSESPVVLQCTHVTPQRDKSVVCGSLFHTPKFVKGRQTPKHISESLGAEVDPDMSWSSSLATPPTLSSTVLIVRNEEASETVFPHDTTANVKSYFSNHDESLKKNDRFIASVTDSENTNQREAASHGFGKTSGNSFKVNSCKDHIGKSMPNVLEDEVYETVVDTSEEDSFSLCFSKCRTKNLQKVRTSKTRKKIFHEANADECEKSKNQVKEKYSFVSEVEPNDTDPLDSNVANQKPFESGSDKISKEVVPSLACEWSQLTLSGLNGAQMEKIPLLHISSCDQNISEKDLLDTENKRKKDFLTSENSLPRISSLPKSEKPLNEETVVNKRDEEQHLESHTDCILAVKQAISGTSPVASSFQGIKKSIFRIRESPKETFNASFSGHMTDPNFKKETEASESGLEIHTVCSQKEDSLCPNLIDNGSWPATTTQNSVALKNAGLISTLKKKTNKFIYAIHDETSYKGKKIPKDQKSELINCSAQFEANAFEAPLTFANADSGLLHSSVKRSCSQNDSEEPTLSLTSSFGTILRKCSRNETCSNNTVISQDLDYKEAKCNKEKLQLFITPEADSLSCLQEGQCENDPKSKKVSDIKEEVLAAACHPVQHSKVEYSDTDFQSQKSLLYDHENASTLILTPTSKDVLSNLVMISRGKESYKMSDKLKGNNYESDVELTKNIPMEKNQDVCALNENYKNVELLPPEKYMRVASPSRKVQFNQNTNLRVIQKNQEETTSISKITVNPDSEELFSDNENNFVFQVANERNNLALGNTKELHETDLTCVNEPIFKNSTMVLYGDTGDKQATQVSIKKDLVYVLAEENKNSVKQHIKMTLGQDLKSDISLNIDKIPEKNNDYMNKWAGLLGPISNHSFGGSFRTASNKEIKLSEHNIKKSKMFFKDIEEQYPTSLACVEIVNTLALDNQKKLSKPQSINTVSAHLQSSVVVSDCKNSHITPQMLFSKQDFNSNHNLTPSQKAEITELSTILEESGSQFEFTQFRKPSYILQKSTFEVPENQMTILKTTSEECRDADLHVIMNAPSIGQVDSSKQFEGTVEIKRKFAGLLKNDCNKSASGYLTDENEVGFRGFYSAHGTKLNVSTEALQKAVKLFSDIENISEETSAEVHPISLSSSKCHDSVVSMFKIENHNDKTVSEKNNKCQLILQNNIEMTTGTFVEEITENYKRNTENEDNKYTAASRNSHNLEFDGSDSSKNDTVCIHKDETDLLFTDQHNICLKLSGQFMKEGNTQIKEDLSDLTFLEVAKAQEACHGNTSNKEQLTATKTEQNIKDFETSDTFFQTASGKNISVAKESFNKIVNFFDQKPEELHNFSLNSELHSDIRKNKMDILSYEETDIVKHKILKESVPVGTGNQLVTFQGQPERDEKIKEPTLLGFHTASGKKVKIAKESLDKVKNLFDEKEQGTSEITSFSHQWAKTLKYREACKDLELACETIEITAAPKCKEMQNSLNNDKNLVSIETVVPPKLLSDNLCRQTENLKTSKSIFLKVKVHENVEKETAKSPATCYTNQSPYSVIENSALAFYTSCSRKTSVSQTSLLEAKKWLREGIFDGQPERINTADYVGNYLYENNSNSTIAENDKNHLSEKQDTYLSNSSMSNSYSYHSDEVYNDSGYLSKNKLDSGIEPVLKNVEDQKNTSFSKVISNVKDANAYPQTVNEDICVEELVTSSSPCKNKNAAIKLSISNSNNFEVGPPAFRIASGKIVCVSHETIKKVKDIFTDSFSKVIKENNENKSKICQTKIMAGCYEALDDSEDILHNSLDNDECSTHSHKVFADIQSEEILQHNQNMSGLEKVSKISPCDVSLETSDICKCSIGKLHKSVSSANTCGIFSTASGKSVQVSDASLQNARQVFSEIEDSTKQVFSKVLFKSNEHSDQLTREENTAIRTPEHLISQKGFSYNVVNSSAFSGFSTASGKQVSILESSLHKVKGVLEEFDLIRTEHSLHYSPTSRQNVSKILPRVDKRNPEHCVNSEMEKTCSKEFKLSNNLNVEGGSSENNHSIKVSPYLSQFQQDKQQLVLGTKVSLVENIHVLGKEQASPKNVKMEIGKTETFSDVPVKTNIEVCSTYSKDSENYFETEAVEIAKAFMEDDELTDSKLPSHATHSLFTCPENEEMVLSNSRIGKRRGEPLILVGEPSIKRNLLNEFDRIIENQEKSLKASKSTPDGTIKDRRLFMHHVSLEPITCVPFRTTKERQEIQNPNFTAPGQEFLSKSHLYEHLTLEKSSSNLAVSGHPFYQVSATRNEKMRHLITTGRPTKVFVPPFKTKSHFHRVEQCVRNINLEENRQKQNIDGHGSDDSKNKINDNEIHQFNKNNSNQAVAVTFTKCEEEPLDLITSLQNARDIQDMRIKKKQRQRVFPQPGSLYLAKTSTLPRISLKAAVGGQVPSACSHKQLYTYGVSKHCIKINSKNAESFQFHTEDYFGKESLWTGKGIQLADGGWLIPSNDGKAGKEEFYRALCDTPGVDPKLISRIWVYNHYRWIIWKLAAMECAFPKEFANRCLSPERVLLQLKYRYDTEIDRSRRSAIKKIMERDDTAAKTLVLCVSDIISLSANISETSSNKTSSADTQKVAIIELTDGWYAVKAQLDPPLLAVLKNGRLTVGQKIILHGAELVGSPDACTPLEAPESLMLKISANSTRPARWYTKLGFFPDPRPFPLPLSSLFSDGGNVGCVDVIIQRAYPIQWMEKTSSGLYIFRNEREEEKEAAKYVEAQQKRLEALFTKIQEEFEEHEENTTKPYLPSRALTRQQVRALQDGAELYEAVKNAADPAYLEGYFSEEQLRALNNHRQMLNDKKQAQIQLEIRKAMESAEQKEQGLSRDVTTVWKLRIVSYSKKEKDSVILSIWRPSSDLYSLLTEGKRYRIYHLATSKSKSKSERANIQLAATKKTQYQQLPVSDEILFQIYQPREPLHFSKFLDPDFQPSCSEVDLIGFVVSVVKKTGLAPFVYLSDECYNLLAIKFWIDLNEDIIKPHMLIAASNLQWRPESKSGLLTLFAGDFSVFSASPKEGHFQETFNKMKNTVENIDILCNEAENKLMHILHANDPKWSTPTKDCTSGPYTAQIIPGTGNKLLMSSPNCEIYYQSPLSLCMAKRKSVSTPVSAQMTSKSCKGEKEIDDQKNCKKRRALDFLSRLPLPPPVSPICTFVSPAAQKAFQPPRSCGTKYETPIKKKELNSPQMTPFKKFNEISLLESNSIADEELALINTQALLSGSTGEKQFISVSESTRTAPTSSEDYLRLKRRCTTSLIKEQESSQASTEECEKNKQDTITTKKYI
UniProt P38398: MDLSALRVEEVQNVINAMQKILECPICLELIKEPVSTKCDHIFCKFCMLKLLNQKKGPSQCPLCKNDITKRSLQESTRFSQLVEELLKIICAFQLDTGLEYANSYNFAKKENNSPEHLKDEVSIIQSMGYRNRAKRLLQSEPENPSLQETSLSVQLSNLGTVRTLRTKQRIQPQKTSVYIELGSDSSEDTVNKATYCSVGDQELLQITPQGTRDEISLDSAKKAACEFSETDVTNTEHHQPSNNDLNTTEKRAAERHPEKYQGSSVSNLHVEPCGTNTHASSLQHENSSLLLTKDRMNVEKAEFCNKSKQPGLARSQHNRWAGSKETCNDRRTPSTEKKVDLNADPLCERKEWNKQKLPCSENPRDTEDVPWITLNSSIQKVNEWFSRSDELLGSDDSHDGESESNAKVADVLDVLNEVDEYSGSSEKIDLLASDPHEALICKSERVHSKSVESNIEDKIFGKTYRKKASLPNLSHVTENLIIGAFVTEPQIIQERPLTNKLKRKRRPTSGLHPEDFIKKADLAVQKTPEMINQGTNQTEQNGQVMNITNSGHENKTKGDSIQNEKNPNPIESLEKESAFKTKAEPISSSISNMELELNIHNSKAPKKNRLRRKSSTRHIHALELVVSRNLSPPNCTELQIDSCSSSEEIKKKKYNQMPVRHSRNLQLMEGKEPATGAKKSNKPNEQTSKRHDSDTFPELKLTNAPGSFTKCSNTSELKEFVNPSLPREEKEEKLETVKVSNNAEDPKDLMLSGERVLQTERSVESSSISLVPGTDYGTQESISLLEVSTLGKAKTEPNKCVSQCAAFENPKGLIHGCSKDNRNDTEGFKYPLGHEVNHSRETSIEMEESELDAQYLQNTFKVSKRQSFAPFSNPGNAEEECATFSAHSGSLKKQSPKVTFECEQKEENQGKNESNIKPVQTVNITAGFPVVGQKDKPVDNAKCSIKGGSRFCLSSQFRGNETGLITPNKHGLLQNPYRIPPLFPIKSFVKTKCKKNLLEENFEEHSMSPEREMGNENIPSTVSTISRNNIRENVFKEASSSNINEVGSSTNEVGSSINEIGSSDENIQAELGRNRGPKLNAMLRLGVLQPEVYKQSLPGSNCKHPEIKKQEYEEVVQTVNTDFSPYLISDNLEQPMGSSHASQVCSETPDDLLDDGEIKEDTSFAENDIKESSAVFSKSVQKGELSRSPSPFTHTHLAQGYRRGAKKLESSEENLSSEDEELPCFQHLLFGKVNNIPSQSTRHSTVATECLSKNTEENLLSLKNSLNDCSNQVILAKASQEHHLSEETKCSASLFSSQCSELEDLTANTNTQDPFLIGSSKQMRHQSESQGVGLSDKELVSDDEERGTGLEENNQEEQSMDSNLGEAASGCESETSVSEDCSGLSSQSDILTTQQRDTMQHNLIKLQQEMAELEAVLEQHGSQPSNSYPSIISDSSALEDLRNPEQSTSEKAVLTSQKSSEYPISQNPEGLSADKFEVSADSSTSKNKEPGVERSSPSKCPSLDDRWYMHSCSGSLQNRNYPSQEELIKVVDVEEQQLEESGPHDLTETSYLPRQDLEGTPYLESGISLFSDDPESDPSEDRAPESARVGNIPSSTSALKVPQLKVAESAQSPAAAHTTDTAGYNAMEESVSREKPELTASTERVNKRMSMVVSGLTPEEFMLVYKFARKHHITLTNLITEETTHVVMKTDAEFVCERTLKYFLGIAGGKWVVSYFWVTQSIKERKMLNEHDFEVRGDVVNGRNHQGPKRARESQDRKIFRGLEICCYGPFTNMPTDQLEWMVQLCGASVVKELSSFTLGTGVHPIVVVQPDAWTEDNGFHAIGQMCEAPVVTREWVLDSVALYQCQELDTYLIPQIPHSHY
UniProt Q99728: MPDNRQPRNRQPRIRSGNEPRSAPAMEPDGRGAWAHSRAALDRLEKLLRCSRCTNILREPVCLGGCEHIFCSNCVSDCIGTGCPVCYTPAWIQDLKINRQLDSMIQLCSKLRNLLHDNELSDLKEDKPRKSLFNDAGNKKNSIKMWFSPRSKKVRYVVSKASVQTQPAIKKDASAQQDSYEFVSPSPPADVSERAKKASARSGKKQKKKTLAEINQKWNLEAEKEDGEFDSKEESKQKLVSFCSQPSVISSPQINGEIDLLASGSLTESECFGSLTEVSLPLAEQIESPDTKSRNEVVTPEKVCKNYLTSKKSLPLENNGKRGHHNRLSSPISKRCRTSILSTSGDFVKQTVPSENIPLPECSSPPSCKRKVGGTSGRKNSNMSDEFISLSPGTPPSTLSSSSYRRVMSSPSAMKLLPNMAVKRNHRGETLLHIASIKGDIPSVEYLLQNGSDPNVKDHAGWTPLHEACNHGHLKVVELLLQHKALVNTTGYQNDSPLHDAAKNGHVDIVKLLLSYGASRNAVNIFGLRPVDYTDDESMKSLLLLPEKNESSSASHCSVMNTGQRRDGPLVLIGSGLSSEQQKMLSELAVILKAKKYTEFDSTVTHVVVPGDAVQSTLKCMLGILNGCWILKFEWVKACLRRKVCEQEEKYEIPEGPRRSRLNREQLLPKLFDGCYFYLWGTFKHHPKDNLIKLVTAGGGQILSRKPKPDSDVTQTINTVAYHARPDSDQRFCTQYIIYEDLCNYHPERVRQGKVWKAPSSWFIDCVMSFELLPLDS

Columns and labels:
Test in all cases: peptide or protein array; antibody array: cell cycle antibody array (Hypromatrix, 60 antibodies) and/or custom array (40 antibodies) immobilised on nitrocellulose, incubated with MM cell lysate, then with HRP-conjugated anti-APEX1 or anti-APEX2 antibody; partners identified by their address on the array
[1] = target: BRCA2 (human (endogenous in MM cells)) (UniProt P51587)
[2] = target: T1, RAD52 (human (endogenous in MM cells)) (UniProt P43351)
T1 sequence: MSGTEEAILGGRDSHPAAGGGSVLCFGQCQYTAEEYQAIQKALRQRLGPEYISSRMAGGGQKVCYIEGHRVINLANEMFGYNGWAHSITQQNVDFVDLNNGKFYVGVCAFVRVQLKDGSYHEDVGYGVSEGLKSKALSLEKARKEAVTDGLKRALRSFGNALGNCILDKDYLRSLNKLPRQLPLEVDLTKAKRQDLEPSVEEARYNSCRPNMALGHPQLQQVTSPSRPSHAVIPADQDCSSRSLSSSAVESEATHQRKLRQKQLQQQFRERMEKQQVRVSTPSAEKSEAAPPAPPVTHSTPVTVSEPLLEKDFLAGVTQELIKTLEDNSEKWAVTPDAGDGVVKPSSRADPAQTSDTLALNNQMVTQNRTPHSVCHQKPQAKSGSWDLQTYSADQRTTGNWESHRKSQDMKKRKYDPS

[3] = target: T2, P73 (human (endogenous in ARP)) (UniProt O15350)
T2 sequence: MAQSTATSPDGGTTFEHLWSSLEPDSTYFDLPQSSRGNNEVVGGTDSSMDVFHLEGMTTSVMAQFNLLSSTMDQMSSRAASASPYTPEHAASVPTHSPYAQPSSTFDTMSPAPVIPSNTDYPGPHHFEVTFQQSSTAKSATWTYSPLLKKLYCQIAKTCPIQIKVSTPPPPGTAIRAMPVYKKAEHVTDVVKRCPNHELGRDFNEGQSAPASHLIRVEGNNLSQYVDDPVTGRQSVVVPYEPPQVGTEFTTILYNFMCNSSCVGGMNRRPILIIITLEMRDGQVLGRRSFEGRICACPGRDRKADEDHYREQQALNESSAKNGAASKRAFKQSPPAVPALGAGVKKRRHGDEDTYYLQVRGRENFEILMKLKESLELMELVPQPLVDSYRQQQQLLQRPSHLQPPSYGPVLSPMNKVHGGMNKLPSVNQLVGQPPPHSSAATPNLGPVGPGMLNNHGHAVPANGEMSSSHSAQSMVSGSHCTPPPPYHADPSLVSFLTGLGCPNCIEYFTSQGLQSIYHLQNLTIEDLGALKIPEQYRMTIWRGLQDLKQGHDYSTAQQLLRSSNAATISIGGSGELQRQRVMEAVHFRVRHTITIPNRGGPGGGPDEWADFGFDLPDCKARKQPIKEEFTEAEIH

[4] = target: BRCA1 (human (endogenous in MM cells)) (UniProt P38398)
[5] = target: P53 (human (endogenous in MM cells)) (UniProt P04637)
[6] = target: BARD1 (human (endogenous in MM cells)) (UniProt Q99728)

binding [1]: binds | binding [2]: binds | binding [3]: no binding | binding [4]: binds | binding [5]: binds | binding [6]: binds
B1: APEX2 (enzyme, UniProt Q9UBZ4 1-518)
chain: MLRVVSWNINGIRRPLQGVANQEPSNCAAVAVGRILDELDADIVCLQETKVTRDALTEPLAIVEGYNSYFSFSRNRSGYSGVATFCKDNATPVAAEEGLSGLFATQNGDVGCYGNMDEFTQEELRALDSEGRALLTQHKIRTWEGKEKTLTLINVYCPHADPGRPERLVFKMRFYRLLQIRAEALLAAGSHVIILGDLNTAHRPIDHWDAVNLECFEEDPGRKWMDSLLSNLGCQSASHVGPFIDSYRCFQPKQEGAFTCWSAVTGARHLNYGSRLDYVLGDRTLVIDTFQASFLLPEVMGSDHCPVGAVLSVSSVPAKQCPPLCTRFLPEFAGTQLKILRFLVPLEQSPVLEQSTLQHNNQTRVQTCQNKAQVRSTRPQPSQVGSSRGQKNLKSYFQPSPSCPQASPDIELPSLPLMSALMTPKTPEEKAVAKVVKGQAKTSEAKDEKELRTSFWKSVLAGPLRTPLCGGHREPCVMRTVKKPGPNLGRRFYMCARPRGPPTDPSSRCNFFLWSRPS
